The supplement of paper PMC6411743
± gives the standard deviation of the averaged measurements. Only a part is listed here, and it is no random draw.

Chains of the proteins cited; added tags and fusions are not shown. Lines headed by an entry give the natural chain unless they say otherwise; changes in a name come on top.
UniProt Q5W0Z9: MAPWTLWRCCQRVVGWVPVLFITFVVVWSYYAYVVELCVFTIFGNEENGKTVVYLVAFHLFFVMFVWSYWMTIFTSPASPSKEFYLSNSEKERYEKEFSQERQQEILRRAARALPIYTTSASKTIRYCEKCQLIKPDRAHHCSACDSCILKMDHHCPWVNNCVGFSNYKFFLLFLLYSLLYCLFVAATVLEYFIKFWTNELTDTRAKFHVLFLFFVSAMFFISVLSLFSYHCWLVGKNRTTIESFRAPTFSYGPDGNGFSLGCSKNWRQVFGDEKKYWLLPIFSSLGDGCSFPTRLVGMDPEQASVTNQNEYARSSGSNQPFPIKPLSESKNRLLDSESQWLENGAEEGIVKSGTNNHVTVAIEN
UniProt Q9UFF9, whole entry: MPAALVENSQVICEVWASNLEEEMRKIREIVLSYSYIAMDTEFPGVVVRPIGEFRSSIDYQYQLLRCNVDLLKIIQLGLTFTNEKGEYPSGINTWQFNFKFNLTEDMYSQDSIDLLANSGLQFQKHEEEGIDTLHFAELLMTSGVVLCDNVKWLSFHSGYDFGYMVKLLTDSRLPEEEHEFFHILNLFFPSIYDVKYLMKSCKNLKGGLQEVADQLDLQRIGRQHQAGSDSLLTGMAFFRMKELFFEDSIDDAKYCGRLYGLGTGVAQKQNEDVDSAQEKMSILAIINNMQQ
UniProt P51617, whole entry, looked up: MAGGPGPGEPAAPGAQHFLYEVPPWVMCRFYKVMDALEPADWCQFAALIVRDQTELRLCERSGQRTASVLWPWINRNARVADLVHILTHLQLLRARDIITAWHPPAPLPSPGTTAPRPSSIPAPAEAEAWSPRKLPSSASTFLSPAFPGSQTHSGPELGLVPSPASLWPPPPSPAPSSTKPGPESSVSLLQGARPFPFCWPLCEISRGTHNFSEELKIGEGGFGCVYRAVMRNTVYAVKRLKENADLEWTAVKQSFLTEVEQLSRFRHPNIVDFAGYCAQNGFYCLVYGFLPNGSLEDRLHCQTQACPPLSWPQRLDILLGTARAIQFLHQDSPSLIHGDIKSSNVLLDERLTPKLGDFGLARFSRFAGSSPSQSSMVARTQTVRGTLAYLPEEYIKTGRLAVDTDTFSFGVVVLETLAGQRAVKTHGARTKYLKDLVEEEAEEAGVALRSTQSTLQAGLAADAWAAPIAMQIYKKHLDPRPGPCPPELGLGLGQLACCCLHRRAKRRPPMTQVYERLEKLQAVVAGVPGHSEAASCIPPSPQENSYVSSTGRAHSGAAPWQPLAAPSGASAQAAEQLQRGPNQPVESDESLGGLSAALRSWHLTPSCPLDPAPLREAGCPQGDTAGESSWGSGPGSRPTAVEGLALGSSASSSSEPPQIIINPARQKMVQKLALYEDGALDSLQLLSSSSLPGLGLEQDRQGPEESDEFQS
UniProt Q9Y3T6: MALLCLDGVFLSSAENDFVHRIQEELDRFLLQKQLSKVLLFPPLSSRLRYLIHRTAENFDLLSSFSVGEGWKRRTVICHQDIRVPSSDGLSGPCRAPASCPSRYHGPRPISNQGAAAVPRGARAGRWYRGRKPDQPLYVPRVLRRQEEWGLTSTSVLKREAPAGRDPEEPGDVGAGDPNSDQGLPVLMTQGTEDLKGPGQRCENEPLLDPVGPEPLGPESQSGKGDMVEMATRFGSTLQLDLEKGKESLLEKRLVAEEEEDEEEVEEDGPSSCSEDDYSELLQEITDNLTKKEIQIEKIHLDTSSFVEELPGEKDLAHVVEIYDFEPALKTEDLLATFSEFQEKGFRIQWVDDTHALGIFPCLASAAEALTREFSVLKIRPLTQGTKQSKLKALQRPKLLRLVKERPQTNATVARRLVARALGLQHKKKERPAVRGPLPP
UniProt Q5JTW2: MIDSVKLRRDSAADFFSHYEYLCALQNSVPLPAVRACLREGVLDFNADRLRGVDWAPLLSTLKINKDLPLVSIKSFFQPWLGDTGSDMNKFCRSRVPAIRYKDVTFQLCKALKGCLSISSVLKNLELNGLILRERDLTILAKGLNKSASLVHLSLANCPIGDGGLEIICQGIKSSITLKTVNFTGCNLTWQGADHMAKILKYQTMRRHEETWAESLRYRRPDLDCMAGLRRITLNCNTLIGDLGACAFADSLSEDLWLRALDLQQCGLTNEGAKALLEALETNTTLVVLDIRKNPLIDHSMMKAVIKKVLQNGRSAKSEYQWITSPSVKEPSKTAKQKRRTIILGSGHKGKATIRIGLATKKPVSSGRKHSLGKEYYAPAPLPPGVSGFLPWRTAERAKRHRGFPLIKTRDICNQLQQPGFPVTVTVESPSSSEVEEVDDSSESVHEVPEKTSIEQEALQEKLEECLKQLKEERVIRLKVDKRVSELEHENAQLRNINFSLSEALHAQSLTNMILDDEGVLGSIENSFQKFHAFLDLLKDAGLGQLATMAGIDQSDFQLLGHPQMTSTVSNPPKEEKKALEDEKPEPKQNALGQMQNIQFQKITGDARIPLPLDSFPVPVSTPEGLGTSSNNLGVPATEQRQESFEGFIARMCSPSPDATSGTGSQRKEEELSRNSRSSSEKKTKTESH
UniProt A6NDG6: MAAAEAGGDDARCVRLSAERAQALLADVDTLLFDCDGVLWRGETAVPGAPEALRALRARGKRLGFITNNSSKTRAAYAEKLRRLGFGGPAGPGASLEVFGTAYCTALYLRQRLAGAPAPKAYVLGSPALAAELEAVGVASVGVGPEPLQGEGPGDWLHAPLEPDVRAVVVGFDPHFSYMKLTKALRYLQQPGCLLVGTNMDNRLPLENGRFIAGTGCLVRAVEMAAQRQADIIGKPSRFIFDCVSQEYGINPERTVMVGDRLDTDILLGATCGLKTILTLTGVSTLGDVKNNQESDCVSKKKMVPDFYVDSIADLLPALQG
UniProt O00541, whole entry: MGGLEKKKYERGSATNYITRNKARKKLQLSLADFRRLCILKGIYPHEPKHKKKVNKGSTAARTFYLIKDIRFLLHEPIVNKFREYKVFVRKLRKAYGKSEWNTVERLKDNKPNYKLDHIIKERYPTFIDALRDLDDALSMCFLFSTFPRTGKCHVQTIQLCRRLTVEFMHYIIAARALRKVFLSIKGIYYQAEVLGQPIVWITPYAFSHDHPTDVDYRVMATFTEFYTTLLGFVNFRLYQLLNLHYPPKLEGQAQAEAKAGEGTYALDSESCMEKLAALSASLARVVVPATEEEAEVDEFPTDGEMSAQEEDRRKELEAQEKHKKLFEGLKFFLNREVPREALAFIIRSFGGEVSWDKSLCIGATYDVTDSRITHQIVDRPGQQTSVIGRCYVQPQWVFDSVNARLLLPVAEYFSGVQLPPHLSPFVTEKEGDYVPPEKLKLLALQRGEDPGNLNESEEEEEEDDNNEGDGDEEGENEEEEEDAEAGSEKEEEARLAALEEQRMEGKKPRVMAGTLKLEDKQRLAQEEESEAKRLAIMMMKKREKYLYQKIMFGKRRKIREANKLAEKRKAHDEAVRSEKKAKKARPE
UniProt A1X283: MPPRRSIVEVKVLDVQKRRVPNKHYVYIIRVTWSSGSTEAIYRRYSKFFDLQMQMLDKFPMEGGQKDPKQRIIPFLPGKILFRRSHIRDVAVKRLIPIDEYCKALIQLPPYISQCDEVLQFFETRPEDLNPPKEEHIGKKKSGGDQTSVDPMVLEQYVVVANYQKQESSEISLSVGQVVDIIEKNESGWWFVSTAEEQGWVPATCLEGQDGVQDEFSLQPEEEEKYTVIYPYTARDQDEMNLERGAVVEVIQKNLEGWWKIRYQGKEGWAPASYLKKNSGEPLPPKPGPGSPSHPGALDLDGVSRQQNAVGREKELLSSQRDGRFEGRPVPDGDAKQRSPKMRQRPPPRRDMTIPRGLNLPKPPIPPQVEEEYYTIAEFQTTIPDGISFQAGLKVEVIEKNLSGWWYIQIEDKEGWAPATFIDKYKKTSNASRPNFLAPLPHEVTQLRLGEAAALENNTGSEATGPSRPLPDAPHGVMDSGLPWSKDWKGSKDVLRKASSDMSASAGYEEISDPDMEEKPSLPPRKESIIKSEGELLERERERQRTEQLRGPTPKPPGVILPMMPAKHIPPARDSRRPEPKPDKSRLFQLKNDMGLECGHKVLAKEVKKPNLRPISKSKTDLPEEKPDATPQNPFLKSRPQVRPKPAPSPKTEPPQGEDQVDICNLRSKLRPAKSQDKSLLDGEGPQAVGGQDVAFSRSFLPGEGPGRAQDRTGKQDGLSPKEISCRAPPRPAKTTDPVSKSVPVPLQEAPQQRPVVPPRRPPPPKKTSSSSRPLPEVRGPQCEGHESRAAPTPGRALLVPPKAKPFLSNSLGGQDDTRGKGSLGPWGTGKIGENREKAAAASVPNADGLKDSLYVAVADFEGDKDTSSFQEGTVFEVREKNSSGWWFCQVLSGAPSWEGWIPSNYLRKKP
UniProt O15372, whole entry: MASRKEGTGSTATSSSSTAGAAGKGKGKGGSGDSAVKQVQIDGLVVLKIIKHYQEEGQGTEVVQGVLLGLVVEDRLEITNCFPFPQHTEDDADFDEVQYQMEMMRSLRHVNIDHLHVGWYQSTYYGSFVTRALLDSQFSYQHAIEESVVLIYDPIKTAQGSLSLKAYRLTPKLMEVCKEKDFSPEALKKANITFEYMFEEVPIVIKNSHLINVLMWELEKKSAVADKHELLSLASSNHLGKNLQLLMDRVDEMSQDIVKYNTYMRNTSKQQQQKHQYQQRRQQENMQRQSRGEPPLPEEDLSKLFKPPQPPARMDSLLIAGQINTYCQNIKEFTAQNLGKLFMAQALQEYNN
UniProt P29323: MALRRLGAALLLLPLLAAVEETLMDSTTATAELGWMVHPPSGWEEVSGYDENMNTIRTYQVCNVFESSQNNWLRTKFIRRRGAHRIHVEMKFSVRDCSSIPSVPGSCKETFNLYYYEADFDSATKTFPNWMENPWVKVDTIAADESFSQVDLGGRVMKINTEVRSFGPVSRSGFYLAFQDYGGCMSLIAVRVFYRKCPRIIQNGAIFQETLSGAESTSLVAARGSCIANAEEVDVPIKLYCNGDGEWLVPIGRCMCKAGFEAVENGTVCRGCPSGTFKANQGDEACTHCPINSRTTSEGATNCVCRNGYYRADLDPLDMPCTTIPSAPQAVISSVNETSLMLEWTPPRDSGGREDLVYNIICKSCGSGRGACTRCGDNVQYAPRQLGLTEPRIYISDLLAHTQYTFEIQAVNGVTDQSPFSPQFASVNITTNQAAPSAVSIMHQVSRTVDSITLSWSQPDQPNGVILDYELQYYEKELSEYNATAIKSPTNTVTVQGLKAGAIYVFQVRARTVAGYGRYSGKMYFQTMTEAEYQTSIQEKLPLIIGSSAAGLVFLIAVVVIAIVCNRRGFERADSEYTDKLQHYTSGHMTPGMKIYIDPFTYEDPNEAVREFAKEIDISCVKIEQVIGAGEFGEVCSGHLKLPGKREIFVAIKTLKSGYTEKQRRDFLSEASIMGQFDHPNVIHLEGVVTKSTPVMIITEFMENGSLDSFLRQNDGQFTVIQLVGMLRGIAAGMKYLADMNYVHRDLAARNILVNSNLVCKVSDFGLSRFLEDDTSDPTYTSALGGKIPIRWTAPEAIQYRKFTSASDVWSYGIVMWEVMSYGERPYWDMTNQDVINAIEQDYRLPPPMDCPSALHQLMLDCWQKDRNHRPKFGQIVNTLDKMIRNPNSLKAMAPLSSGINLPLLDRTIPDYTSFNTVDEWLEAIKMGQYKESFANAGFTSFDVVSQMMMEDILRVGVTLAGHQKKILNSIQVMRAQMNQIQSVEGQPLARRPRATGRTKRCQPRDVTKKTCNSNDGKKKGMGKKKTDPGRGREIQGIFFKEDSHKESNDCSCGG
UniProt Q96GQ7: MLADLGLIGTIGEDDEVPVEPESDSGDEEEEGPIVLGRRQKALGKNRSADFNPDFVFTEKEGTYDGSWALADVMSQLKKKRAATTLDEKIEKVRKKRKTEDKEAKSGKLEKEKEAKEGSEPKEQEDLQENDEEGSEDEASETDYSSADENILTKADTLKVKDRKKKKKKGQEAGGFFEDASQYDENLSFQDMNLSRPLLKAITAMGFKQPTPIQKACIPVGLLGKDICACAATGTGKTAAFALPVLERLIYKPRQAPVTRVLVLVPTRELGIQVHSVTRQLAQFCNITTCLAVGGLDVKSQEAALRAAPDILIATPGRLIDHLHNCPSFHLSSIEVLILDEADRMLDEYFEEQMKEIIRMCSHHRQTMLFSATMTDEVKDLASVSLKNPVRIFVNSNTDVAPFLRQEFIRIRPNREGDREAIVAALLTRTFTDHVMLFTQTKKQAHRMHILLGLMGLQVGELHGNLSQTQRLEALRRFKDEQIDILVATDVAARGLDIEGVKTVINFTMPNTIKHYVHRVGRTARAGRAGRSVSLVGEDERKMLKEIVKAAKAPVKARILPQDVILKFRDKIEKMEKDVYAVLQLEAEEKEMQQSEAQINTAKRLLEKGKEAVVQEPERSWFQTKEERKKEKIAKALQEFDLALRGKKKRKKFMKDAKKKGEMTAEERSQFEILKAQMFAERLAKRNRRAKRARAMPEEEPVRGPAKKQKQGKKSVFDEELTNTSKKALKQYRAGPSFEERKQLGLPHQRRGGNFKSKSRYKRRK
UniProt P99999: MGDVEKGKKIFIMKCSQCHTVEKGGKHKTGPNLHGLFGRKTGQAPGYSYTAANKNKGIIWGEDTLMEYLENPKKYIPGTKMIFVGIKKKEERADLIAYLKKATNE

Compound: Nc1ncnc2c1ncn2[C@@H]1O[C@H](COP(=O)(O)OP(=O)(O)OP(=O)(O)O)[C@@H](O)[C@H]1O [adenosine triphosphate]
Experiment: NP40-soluble protein abundance relative to vehicle (solubility fold change) (ratio); higher = more soluble protein in presence of ATP
In short: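 Data come from three independent experiments in which Dounce-homogenised Jurkat crude lysate was treated at eight concentrations from 0.1 to 10 mM. Treatment ran 10 min at room temperature and then 3 min at 37 °C, after which 0.8% NP40 and benzonase were added for 60 min at 4 °C before ultracentrifugation. The supernatant underwent TMT labelling and LC-MS/MS, and vsn-normalised intensities were expressed as fold change against the detergent-processed vehicle in each replicate.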

Target	NP40-soluble protein abundance (concentration: 1mM)	NP40-soluble protein abundance (concentration: 2mM)	NP40-soluble protein abundance (concentration: 4mM)	NP40-soluble protein abundance (concentration: 6mM)	NP40-soluble protein abundance (concentration: 8mM)	NP40-soluble protein abundance (concentration: 10mM)
B4DJV2 and related entries (UniProt O75390)	0.869 ± 0.34	0.934 ± 0.35	0.773 ± 0.24	0.844 ± 0.24	0.825 ± 0.044	0.749 ± 0.12
D3YTK1 and related entries (UniProt Q9C0K0)	1.1 ± 0.058	1.1 ± 0.074	1.13 ± 0.08	1.15 ± 0.17	1.16 ± 0.098	1.2 ± 0.11
A6NCE7 and related entries (UniProt Q9GZQ8+H3BTL1+A6NCE7)	0.986 ± 0.039	0.966 ± 0.0073	0.931 ± 0.024	0.968 ± 0.024	0.929 ± 0.049	0.9296 ± 0.0087
B4DRN8 and related entries (UniProt Q5W0Z9)	1.01 ± 0.025	1.03 ± 0.047	1.02 ± 0.081	1.01 ± 0.11	1 ± 0.095	1 ± 0.046
C9J2Y9 and related entries (UniProt P30876)	1.08 ± 0.075	1.05 ± 0.038	1.06 ± 0.02	1.02 ± 0.044	1.1 ± 0.028	1.07 ± 0.059
B7Z9U0 and related entries (UniProt Q9UFF9)	1.05 ± 0.12	1.07 ± 0.098	1.139 ± 0.011	1.21 ± 0.1	1.22 ± 0.077	1.18 ± 0.17
D3DSM0 and related entries (UniProt P05107)	0.9898 ± 0.0062	0.9833 ± 0.0092	0.978 ± 0.03	1 ± 0.0044	0.967 ± 0.038	0.946 ± 0.017
B8ZZS2 and related entries (UniProt Q13506)	1.05 ± 0.14	1.05 ± 0.079	1.02 ± 0.14	0.941 ± 0.11	0.986 ± 0.12	1 ± 0.064
D3YTB5 and related entries (UniProt P51617)	1.12 ± 0.064	1.15 ± 0.092	1.15 ± 0.075	1.12 ± 0.044	1.12 ± 0.035	1.16 ± 0.067
UniProt A3KMH1 and related entries	0.998 ± 0.034	0.964 ± 0.011	0.987 ± 0.013	0.958 ± 0.042	1.03 ± 0.015	1.01 ± 0.036
B7WPL0 and related entries (UniProt Q9NVN3)	0.92 ± 0.063	0.971 ± 0.049	0.925 ± 0.052	0.937 ± 0.031	0.898 ± 0.016	0.916 ± 0.055
A0A0R4J2E2|Q9Y3T6 and related entries (UniProt Q9Y3T6)	0.945 ± 0.055	0.975 ± 0.027	0.957 ± 0.028	0.933 ± 0.031	0.947 ± 0.024	0.949 ± 0.018
A0A0G2JIR1|A0A0G2JIS2|A0A0G2JK64|A2ABF8 and related entries (UniProt Q96KQ7)	1.02 ± 0.056	1.099 ± 0.0099	1 ± 0.097	1.08 ± 0.068	0.965 ± 0.094	1.04 ± 0.066
B0QYS6 and related entries (UniProt P19484)	1.04 ± 0.13	0.884 ± 0.041	1.06 ± 0.012	0.957 ± 0.017	0.913 ± 0.12	0.936 ± 0.1
A8MST6 and related entries (UniProt Q5JTW2)	1.04 ± 0.11	0.977 ± 0.22	0.977 ± 0.24	1.09 ± 0.29	0.938 ± 0.14	0.909 ± 0.25
PGP (UniProt A6NDG6)	0.966 ± 0.029	0.97 ± 0.021	0.943 ± 0.022	0.958 ± 0.048	0.94 ± 0.034	0.947 ± 0.041
B5MCF9 and related entries (UniProt O00541)	0.9976 ± 0.0083	1.018 ± 0.005	1.01 ± 0.017	0.999 ± 0.019	0.996 ± 0.028	1.04 ± 0.025
SH3PXD2B (UniProt A1X283)	0.951 ± 0.058	0.963 ± 0.024	0.9739 ± 0.0059	0.989 ± 0.012	0.941 ± 0.03	0.956 ± 0.032
B3KS98 and related entries (UniProt O15372)	0.993 ± 0.041	1.01 ± 0.075	1.08 ± 0.071	1.25 ± 0.13	1.33 ± 0.094	1.48 ± 0.13
B1AKC9 and related entries (UniProt P29323)	1.21 ± 0.21	1.14 ± 0.23	1.11 ± 0.33	0.996 ± 0.18	1.03 ± 0.13	1.06 ± 0.15
UniProt A9UHW6 and related entries	0.99 ± 0.046	0.967 ± 0.02	0.957 ± 0.018	0.951 ± 0.039	0.964 ± 0.049	0.881 ± 0.1
B7Z6D5 and related entries (UniProt Q96GQ7)	1.08 ± 0.053	1.16 ± 0.06	1.24 ± 0.087	1.26 ± 0.057	1.31 ± 0.09	1.4 ± 0.1
B4E1Q4 and related entries (UniProt O14730)	0.996 ± 0.054	0.966 ± 0.068	0.952 ± 0.048	0.928 ± 0.064	0.889 ± 0.046	0.906 ± 0.086
C9JAX1 and related entries (UniProt Q16595)	0.926 ± 0.091	0.967 ± 0.041	0.953 ± 0.04	0.921 ± 0.059	0.888 ± 0.073	0.862 ± 0.14
C9JYM0 and related entries (UniProt O75817)	1.11 ± 0.13	1.06 ± 0.077	1.13 ± 0.16	1.03 ± 0.031	1.04 ± 0.036	1.11 ± 0.077
B7ZVY7 and related entries (UniProt P21127+B7ZVY7)	0.868 ± 0.035	0.784 ± 0.041	0.7 ± 0.043	0.696 ± 0.044	0.697 ± 0.032	0.713 ± 0.063
C9JPC9 and related entries (UniProt Q9H9J4)	0.967 ± 0.091	0.951 ± 0.12	1.03 ± 0.11	1.07 ± 0.19	1.01 ± 0.09	1.03 ± 0.13
UniProt B7ZLF3	1.02 ± 0.059	1.02 ± 0.074	1.12 ± 0.042	1.08 ± 0.047	1.09 ± 0.08	1.1 ± 0.069
A0AVT1	1.01 ± 0.084	0.988 ± 0.074	0.963 ± 0.059	0.958 ± 0.1	0.994 ± 0.044	0.963 ± 0.061
C9JFR7 and related entries (UniProt P99999)	0.964 ± 0.033	0.957 ± 0.09	0.941 ± 0.05	0.982 ± 0.13	0.916 ± 0.052	0.911 ± 0.073

Some entries already given, limited to NP40-soluble protein abundance (concentration: 8mM).
Target	NP40-soluble protein abundance (concentration: 8mM)
B8ZZS2 and related entries (UniProt Q13506)	0.986 ± 0.12
D3YTB5 and related entries (UniProt P51617)	1.12 ± 0.035
